PubChem BioAssay AID743121, NCATS | 2013
Purpose: 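Knock-downs that sensitise breast cancer cells to camptothecin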 (primary screen). System: MDA-MB-231 cells, a human breast cancer line. Reagents: single siRNA against human genes, 20 nM siRNA (0.8 pmol per well). Time to read-out: 120 h (drug added 48 h after transfection, read 72 h later). Challenge: camptothecin 20 nM (about EC30) for 72 h; vehicle 0.1% DMSO in parallel plates. Measured: 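CellTiter-Glo ATP signal, scaled to control siRNA as percent viability; sensitisation given as log2 of untreated divided by camptothecin-treated viability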. Scale: log2 vehicle/camptothecin viability: higher = stronger sensitisation to camptothecin; viability with camptothecin and viability without drug: higher = more viable cells. Active means: 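Active genes have an RSA gene-level p-value below 0.001, computed from the ratios of their separate siRNAs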.
Shown is an unselected part of about 26,000 reagents. 167 of them (0.63%) were called active. 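Calls are per gene from RSA p-values that are not deposited; an individual active-marked siRNA can sensitise only weakly.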 Unmarked entries are inactive. The numbers tell different reagents against one gene apart.

target gene | siRNA no. | log2 vehicle/camptothecin viability | viability with camptothecin (% of control) | viability without drug (% of control)
SLAMF7 | 1 | -0.278 | 54.6 | 45.1
SLAMF7 | 2 | -0.569 | 90.5 | 61
SLAMF7 | 3 | 0.153 | 78.2 | 87
RYBP | 1 | -0.0528 | 34.5 | 33.3
RYBP | 2 | 0.201 | 65.9 | 75.8
RYBP | 3 | -0.0379 | 99.5 | 96.9
RYBP | 4 | -0.0711 | 66.6 | 63.4
NRBP2 | 1 | -0.0838 | 85.2 | 80.4
NRBP2 | 2 | -0.634 | 50.4 | 32.5
NRBP2 | 3 | -0.022 | 101 | 99.7
NRBP2 | 4 | -0.198 | 79.4 | 69.2
GRIK1 | 1 | 0.858 | 26 | 47.1
GRIK1 | 2 | -0.00128 | 62.2 | 62.1
GRIK1 | 3 | 0.0443 | 81.9 | 84.5
SPARCL1 | 1 | -0.51 | 51.5 | 36.2
SPARCL1 | 2 | -0.0944 | 68 | 63.7
SPARCL1 | 3 | -0.34 | 95.2 | 75.2
SPARCL1 | 4 | -0.447 | 60.5 | 44.4
UCK1 | 1 | -0.306 | 24 | 19.4
UCK1 | 2 | 2 | 6.61 | 26.5
UCK1 | 3 | 0.181 | 34.7 | 39.4
SEC62 | 1 | -0.259 | 94.2 | 78.8
SEC62 | 2 | 0.373 | 53.5 | 69.3
SEC62 | 3 | -0.0949 | 59.1 | 55.4
EIF2AK3 | 1 | -0.508 | 58.2 | 41
EIF2AK3 | 2 | -0.0719 | 117 | 112
EIF2AK3 | 3 | -0.581 | 47.4 | 31.7
EIF2AK3 | 4 | -0.197 | 111 | 96.9
PAICS | 1 | 0.099 | 99.7 | 107
PAICS | 2 | -0.203 | 66.7 | 58
PAICS | 3 | -0.254 | 109 | 91.1
OR5P2 | 1 | -0.467 | 94 | 68
OR5P2 | 2 | -0.0311 | 39.7 | 38.9
OR5P2 | 3 | -0.328 | 116 | 92.6
OR5P2 | 4 | -0.25 | 83.9 | 70.6
NEK3 | 1 | -0.632 | 119 | 77
NEK3 | 2 | -0.369 | 98.5 | 76.3
NEK3 | 3 | -0.223 | 32.4 | 27.8
NEK3 | 4 | -0.267 | 54.3 | 45.2
CARD9 | 1 | -0.314 | 24.6 | 19.8
CARD9 | 2 | 0.865 | 32 | 58.3
CARD9 | 3 | -0.283 | 75.3 | 61.9
CARD9 | 4 | 0.0474 | 90.9 | 93.9
PGPEP1 | 1 | -0.393 | 109 | 82.7
PGPEP1 | 2 | -7.19 | 45.2 | 0.31
PGPEP1 | 3 | -0.124 | 52.1 | 47.8
PGPEP1 | 4 | -0.264 | 93.2 | 77.6

Part of the list above, showing only “viability without drug (% of control)”:
NRBP2 #2: 32.5
NRBP2 #3: 99.7
NRBP2 #4: 69.2
GRIK1 #1: 47.1
GRIK1 #2: 62.1
GRIK1 #3: 84.5
SPARCL1 #1: 36.2
